Laboratory results from paper PMC2688274.
No constants are given. Whether binding was seen depends on the method and setting. For some of these results: In cells and extracts the contact can be indirect. Some results given as binding are weak or reduced against the parent protein; the word gives no strength. For some of these results: Sequences can lack the tags named with a protein.

Experiments:
[1] = target: T1, SEP3-CFP / SEP3-YFP (Arabidopsis thaliana), O22456; assay: FRET or BRET; FRET-FLIM in Arabidopsis leaf protoplasts; carboxy-terminal CFP (donor) and YFP (acceptor) fusions; donor lifetime measured on the central part of the nucleus, at least ten cells a combination in three experiments; conditions: remark: other sources report otherwise
T1 chain: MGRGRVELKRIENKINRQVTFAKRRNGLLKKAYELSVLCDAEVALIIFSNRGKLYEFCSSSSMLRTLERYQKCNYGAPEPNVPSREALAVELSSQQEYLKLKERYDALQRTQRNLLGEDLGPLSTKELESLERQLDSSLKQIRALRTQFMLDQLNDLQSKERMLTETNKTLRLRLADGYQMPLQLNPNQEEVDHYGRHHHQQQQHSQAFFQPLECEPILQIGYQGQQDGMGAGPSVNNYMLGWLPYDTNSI

[2] = target: AP3-CFP / AP3-YFP (Arabidopsis thaliana) (UniProt P35632); assay: as above
[3] = target: PI-CFP / PI-YFP (Arabidopsis thaliana) (UniProt P48007); assay: as above
[4] = target: T2, AP3-CFP / AP3-YFP (Arabidopsis thaliana), P35632; assay: FRET or BRET; FRET-FLIM in Arabidopsis leaf protoplasts between PI-CFP and AP3-YFP in the presence of a non-labeled SEP3 protein; conditions: remark: other sources report otherwise
T2 chain: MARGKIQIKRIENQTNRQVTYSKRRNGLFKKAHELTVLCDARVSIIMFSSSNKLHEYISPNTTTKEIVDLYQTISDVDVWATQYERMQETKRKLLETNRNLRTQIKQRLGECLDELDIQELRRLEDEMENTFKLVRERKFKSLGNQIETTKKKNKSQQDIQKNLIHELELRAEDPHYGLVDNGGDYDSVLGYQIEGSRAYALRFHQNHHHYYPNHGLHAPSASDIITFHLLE

[5] = target: T2, AP3-CFP / AP3-YFP (Arabidopsis …); assay: FRET or BRET; FRET-FLIM in Arabidopsis leaf protoplasts; carboxy-terminal CFP (donor) and YFP (acceptor) fusions; donor lifetime measured on the central part of the nucleus, at least ten cells a combination in three experiments; conditions: remark: other sources report otherwise
[6] = substrate: PI with SEP3ΔC2 (in the yeast three-hybrid screen with the SEP3ΔC2 collection) (Arabidopsis thaliana) (UniProt P48007+O22456); assay: yeast three-hybrid; yeast PJ69-4; dimer clones (one partner fused to GAL4-AD, the other to a nuclear localization signal only, pARC352) mated with single proteins fused to GAL4-BD; growth on -L -W -A -H with 1, 5 or 10 mM 3-AT at 20°C for 7 days, and LacZ assay
[7] = target: SEP1-SEP2 dimer (Arabidopsis thaliana) (UniProt P29382+P29384); assay: as above

B1: SEP3-CFP / SEP3-YFP, O22456 1-251 (protein)
chain: MGRGRVELKRIENKINRQVTFAKRRNGLLKKAYELSVLCDAEVALIIFSNRGKLYEFCSSSSMLRTLERYQKCNYGAPEPNVPSREALAVELSSQQEYLKLKERYDALQRTQRNLLGEDLGPLSTKELESLERQLDSSLKQIRALRTQFMLDQLNDLQSKERMLTETNKTLRLRLADGYQMPLQLNPNQEEVDHYGRHHHQQQQHSQAFFQPLECEPILQIGYQGQQDGMGAGPSVNNYMLGWLPYDTNSI
binding [1]: binds

B2: AP3-CFP / AP3-YFP (protein, UniProt P35632 1-232)
chain: MARGKIQIKRIENQTNRQVTYSKRRNGLFKKAHELTVLCDARVSIIMFSSSNKLHEYISPNTTTKEIVDLYQTISDVDVWATQYERMQETKRKLLETNRNLRTQIKQRLGECLDELDIQELRRLEDEMENTFKLVRERKFKSLGNQIETTKKKNKSQQDIQKNLIHELELRAEDPHYGLVDNGGDYDSVLGYQIEGSRAYALRFHQNHHHYYPNHGLHAPSASDIITFHLLE
binding [2]: binds weakly

B3: PI-CFP / PI-YFP (protein, UniProt P48007 1-208)
chain: MGRGKIEIKRIENANNRVVTFSKRRNGLVKKAKEITVLCDAKVALIIFASNGKMIDYCCPSMDLGAMLDQYQKLSGKKLWDAKHENLSNEIDRIKKENDSLQLELRHLKGEDIQSLNLKNLMAVEHAIEHGLDKVRDHQMEILISKRRNEKMMAEEQRQLTFQLQQQEMAIASNARGMMMRDHDGQFGYRVQPIQPNLQEKIMSLVID
binding [3]: binds weakly

B4: PI-CFP / PI-YFP, P48007 1-208 (protein)
chain: MGRGKIEIKRIENANNRVVTFSKRRNGLVKKAKEITVLCDAKVALIIFASNGKMIDYCCPSMDLGAMLDQYQKLSGKKLWDAKHENLSNEIDRIKKENDSLQLELRHLKGEDIQSLNLKNLMAVEHAIEHGLDKVRDHQMEILISKRRNEKMMAEEQRQLTFQLQQQEMAIASNARGMMMRDHDGQFGYRVQPIQPNLQEKIMSLVID
binding [4]: binds
binding [5]: binds

B5: APETALA3 (AP3), full length, in yeast (protein, UniProt P35632 1-232)
chain: MARGKIQIKRIENQTNRQVTYSKRRNGLFKKAHELTVLCDARVSIIMFSSSNKLHEYISPNTTTKEIVDLYQTISDVDVWATQYERMQETKRKLLETNRNLRTQIKQRLGECLDELDIQELRRLEDEMENTFKLVRERKFKSLGNQIETTKKKNKSQQDIQKNLIHELELRAEDPHYGLVDNGGDYDSVLGYQIEGSRAYALRFHQNHHHYYPNHGLHAPSASDIITFHLLE
binding [6]: binds

B6: ARABIDOPSIS BSISTER, long splice form (ABS-I) (protein, UniProt Q8RYD9 1-252)
chain: MGRGKIEIKKIENQTARQVTFSKRRTGLIKKTRELSILCDAHIGLIVFSATGKLSEFCSEQNRMPQLIDRYLHTNGLRLPDHHDDQEQLHHEMELLRRETCNLELRLRPFHGHDLASIPPNELDGLERQLEHSVLKVRERKNELMQQQLENLSRKRRMLEEDNNNMYRWLHEHRAAMEFQQAGIDTKPGEYQQFIEQLQCYKPGEYQQFLEQQQQQPNSVLQLATLPSEIDPTYNLQLAQPNLQNDPTAQND
binding [7]: binds
